Results are given in words; binding and its absence hold for the method and conditions named. Some entries that bind do so weakly or less than the wild type.
Target: T1, SpLsm2 (Lsm2 from S. pombe) (S. pombe) (UniProt O94408)
T1 sequence: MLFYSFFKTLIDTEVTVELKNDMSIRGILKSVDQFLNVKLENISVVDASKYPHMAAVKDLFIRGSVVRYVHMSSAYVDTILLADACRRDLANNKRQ
Test: co-purification of co-expressed proteins; co-expression in E. coli; TALON Co2+ column by the His6 tag of SpLsm2 (20 mM Hepes pH 7.5, 200 mM NaCl), then Superdex-200 (20 mM Hepes pH 7.5, 100 mM NaCl, 2 mM DTT)

Sequences of proteins named here, by UniProt entry; tags and fusion partners are left off.
UniProt Q9Y7M4: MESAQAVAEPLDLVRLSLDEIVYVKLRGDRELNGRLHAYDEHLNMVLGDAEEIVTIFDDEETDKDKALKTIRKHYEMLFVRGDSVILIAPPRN

binding: binds
Substance: SpLsm3 from the co-expressed SpLsm2/3 sample (from UniProt Q9Y7M4 1-93)
